doi:10.1101/758722
Results are given in words; binding and its absence hold for the method and conditions named. For some of these results: In cells and extracts the contact can be indirect. Some entries that bind do so weakly or less than the wild type. For some of these results: Tags and fused reporters may be left off the sequences shown.

Sequences of proteins named here, by UniProt entry; tags and fusion partners are left off.
UniProt P27694: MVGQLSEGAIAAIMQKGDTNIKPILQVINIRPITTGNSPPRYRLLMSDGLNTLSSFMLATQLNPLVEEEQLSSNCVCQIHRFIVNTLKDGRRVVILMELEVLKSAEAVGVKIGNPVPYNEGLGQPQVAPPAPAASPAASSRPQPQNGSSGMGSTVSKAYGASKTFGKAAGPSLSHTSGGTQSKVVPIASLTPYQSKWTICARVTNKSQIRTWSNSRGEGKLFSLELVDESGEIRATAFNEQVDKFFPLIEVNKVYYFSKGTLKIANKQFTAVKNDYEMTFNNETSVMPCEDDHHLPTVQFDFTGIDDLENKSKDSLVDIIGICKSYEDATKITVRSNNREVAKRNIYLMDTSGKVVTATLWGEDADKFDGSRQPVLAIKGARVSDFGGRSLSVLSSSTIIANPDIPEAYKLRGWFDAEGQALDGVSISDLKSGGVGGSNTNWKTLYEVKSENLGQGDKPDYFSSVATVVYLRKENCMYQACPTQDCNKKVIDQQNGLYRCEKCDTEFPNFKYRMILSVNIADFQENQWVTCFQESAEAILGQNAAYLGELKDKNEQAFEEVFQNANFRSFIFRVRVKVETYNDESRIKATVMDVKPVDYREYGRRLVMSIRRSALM
UniProt P15927: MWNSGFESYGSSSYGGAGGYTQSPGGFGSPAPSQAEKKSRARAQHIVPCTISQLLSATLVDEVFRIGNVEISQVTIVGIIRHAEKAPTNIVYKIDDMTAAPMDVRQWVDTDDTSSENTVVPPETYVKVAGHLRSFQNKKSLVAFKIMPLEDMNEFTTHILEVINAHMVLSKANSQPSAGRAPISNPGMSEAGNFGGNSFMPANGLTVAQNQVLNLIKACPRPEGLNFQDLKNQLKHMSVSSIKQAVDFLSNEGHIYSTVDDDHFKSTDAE

Columns and labels:
RPA1 = RPA1 (UniProt P27694); test: co-IP
RPA2 = RPA2 (UniProt P15927); test: co-IP
MBP-tagged RPA1 = MBP-tagged RPA1 (UniProt P27694); test: pull-down
MBP-tagged RPA2 = MBP-tagged RPA2 (UniProt P15927); test: pull-down

B1: C17orf53 (protein, UniProt Q8N3J3 1-647)
chain: MACSLQKLFAVEEEFEDEDFLSAVEDAENRFTGSLPVNAGRLRPVSSRPQETVQAQSSRLLLLHPTAPSEALGLPDLDLCLPASSTPSADSRPSCIGAAPLRPVSTSSSWIGNQRRVTVTEVLRETARPQSSALHPLLTFESQQQQVGGFEGPEQDEFDKVLASMELEEPGMELECGVSSEAIPILPAQQREGSVLAKKARVVDLSGSCQKGPVPAIHKAGIMSAQDESLDPVIQCRTPRPPLRPGAVGHLPVPTALTVPTQQLHWEVCPQRSPVQALQPLQAARGTIQSSPQNRFPCQPFQSPSSWLSGKAHLPRPRTPNSSCSTPSRTSSGLFPRIPLQPQAPVSSIGSPVGTPKGPQGALQTPIVTNHLVQLVTAASRTPQQPTHPSTRAKTRRFPGPAGILPHQQSGRSLEDIMVSAPQTPTHGALAKFQTEIVASSQASVEEDFGRGPWLTMKSTLGLDERDPSCFLCTYSIVMVLRKQAALKQLPRNKVPNMAVMIKSLTRSTMDASVVFKDPTGEMQGTVHRLLLETCQNELKPGSVLLLKQIGVFSPSLRNHYLNVTPNNLVHIYSPDSGDGSFLKPSQPFPKDSGSFQHDVAAKPEEGFRTAQNLEAEASPEEELPEADDLDGLLSELPEDFFCGTSS
With B1 the binding (RPA1) was “binds” and the binding (RPA2) was “binds”.

B2: GST-C17orf53 (protein, UniProt Q8N3J3 1-647)
chain: MACSLQKLFAVEEEFEDEDFLSAVEDAENRFTGSLPVNAGRLRPVSSRPQETVQAQSSRLLLLHPTAPSEALGLPDLDLCLPASSTPSADSRPSCIGAAPLRPVSTSSSWIGNQRRVTVTEVLRETARPQSSALHPLLTFESQQQQVGGFEGPEQDEFDKVLASMELEEPGMELECGVSSEAIPILPAQQREGSVLAKKARVVDLSGSCQKGPVPAIHKAGIMSAQDESLDPVIQCRTPRPPLRPGAVGHLPVPTALTVPTQQLHWEVCPQRSPVQALQPLQAARGTIQSSPQNRFPCQPFQSPSSWLSGKAHLPRPRTPNSSCSTPSRTSSGLFPRIPLQPQAPVSSIGSPVGTPKGPQGALQTPIVTNHLVQLVTAASRTPQQPTHPSTRAKTRRFPGPAGILPHQQSGRSLEDIMVSAPQTPTHGALAKFQTEIVASSQASVEEDFGRGPWLTMKSTLGLDERDPSCFLCTYSIVMVLRKQAALKQLPRNKVPNMAVMIKSLTRSTMDASVVFKDPTGEMQGTVHRLLLETCQNELKPGSVLLLKQIGVFSPSLRNHYLNVTPNNLVHIYSPDSGDGSFLKPSQPFPKDSGSFQHDVAAKPEEGFRTAQNLEAEASPEEELPEADDLDGLLSELPEDFFCGTSS
In the case of B2, the binding (MBP-tagged RPA1) is reported as “binds” and the binding (MBP-tagged RPA2) is reported as “binds”.
